This is an account of results in article PMC4666613.

Chains of the proteins cited; added tags and fusions are not shown.
UniProt P10243: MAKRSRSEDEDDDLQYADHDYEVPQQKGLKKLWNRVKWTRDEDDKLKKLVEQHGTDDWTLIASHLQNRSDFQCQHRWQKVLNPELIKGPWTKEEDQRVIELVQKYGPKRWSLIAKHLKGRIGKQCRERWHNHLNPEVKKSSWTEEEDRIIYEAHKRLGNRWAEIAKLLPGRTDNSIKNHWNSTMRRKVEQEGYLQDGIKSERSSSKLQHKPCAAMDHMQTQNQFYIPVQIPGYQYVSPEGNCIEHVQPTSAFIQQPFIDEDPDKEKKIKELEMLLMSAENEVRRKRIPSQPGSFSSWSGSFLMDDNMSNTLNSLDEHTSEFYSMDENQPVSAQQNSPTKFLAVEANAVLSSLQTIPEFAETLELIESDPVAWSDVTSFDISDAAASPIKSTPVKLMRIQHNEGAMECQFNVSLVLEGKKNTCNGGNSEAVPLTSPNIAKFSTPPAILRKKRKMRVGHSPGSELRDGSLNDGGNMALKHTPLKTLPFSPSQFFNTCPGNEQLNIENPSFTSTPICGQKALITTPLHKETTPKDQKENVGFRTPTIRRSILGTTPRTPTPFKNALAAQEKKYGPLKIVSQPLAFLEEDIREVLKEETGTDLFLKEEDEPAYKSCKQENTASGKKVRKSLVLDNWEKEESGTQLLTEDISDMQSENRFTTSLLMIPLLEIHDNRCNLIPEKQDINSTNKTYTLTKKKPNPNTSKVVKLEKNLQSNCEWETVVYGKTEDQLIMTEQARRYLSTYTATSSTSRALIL

The target of the assay is FLAG-tagged A-MYB (UniProt P10243). In words: co-IP; FLAG-tagged A-MYB and GFP-tagged TRIM33 co-expressed in HEK293T cells; Nuclear Complex Co-IP Kit (Active Motif); lysates immunoprecipitated with anti-FLAG beads or anti-IgG beads as control; Western blot with anti-GFP and anti-FLAG. A general note: A western blot detects proteins with antibodies after separation by electrophoresis.

These are yes or no findings as the source states them, for the method shown. In cells and extracts the contact can be indirect. Some results given as binding are weak or reduced against the parent protein; the word gives no strength. Sequences can lack the tags named with a protein.

B1: GFP-tagged TRIM33 (protein, UniProt Q9UPN9 1-1127)
chain: MAENKGGGEAESGGGGSGSAPVTAGAAGPAAQEAEPPLTAVLVEEEEEEGGRAGAEGGAAGPDDGGVAAASSGSAQAASSPAASVGTGVAGGAVSTPAPAPASAPAPGPSAGPPPGPPASLLDTCAVCQQSLQSRREAEPKLLPCLHSFCLRCLPEPERQLSVPIPGGSNGDIQQVGVIRCPVCRQECRQIDLVDNYFVKDTSEAPSSSDEKSEQVCTSCEDNASAVGFCVECGEWLCKTCIEAHQRVKFTKDHLIRKKEDVSESVGASGQRPVFCPVHKQEQLKLFCETCDRLTCRDCQLLEHKEHRYQFLEEAFQNQKGAIENLLAKLLEKKNYVHFAATQVQNRIKEVNETNKRVEQEIKVAIFTLINEINKKGKSLLQQLENVTKERQMKLLQQQNDITGLSRQVKHVMNFTNWAIASGSSTALLYSKRLITFQLRHILKARCDPVPAANGAIRFHCDPTFWAKNVVNLGNLVIESKPAPGYTPNVVVGQVPPGTNHISKTPGQINLAQLRLQHMQQQVYAQKHQQLQQMRMQQPPAPVPTTTTTTQQHPRQAAPQMLQQQPPRLISVQTMQRGNMNCGAFQAHQMRLAQNAARIPGIPRHSGPQYSMMQPHLQRQHSNPGHAGPFPVVSVHNTTINPTSPTTATMANANRGPTSPSVTAIELIPSVTNPENLPSLPDIPPIQLEDAGSSSLDNLLSRYISGSHLPPQPTSTMNPSPGPSALSPGSSGLSNSHTPVRPPSTSSTGSRGSCGSSGRTAEKTSLSFKSDQVKVKQEPGTEDEICSFSGGVKQEKTEDGRRSACMLSSPESSLTPPLSTNLHLESELDALASLENHVKIEPADMNESCKQSGLSSLVNGKSPIRSLMHRSARIGGDGNNKDDDPNEDWCAVCQNGGDLLCCEKCPKVFHLTCHVPTLLSFPSGDWICTFCRDIGKPEVEYDCDNLQHSKKGKTAQGLSPVDQRKCERLLLYLYCHELSIEFQEPVPASIPNYYKIIKKPMDLSTVKKKLQKKHSQHYQIPDDFVADVRLIFKNCERFNEMMKVVQVYADTQEINLKADSEVAQAGKAVALYFEDKLTEIYSDRTFAPLPEFEQEEDDGEVTEDSDEDFIQPRRKRLKSDERPVHIK
As to B1, the binding entry is given as “binds”.
